Experimental data: PMC12667509, “Inhibition of Macrophage ARID3A Alleviates Myocardial Ischemia‐Reperfusion Injury After Heart Transplantation by Reducing THBS1/CD47 Signaling‐Mediated Neutrophil Extracellular Traps Formation” (Advanced Science, 2025)
These are yes or no findings as the source states them, for the method shown. Binding seen in cells or lysates may run through a third protein. Some binding calls cover weakened binding; strength is not graded here.

Protein sequences, listed by entry. Tags and fused reporters are not part of them. Residues count along the entry.
UniProt P35441, residues 19-1170: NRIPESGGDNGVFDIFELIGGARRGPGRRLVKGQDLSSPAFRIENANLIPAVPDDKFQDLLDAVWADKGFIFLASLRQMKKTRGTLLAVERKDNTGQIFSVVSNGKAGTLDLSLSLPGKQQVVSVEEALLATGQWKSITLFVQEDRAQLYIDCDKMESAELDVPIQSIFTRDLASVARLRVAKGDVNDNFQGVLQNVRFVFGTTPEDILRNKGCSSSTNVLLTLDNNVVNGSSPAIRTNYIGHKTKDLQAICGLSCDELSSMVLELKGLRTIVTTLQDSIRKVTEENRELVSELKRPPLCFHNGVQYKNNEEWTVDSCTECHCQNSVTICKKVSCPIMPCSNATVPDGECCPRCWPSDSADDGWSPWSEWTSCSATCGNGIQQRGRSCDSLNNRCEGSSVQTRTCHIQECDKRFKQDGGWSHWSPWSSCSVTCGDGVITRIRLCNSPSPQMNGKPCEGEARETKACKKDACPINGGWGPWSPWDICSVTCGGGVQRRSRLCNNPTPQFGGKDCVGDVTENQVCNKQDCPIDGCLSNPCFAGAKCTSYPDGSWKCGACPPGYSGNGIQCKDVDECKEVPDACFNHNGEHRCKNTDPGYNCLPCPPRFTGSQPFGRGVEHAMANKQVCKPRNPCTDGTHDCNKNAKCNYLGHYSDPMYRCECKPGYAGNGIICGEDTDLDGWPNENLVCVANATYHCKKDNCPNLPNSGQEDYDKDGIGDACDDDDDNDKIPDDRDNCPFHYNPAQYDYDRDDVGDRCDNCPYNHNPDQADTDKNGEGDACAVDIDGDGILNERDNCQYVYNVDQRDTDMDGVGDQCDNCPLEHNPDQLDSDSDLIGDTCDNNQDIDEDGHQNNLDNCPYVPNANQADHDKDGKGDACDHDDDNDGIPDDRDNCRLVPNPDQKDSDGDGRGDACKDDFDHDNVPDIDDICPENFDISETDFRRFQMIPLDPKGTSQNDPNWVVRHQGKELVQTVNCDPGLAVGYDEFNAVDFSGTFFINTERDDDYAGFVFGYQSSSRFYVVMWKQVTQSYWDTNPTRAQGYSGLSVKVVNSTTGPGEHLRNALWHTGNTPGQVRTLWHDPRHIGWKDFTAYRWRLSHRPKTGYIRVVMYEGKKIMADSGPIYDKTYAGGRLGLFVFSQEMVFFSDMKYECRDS

Biological target: T1, CD47 (mouse (endogenous in myocardial tissue)) (UniProt Q61735)
T1 sequence: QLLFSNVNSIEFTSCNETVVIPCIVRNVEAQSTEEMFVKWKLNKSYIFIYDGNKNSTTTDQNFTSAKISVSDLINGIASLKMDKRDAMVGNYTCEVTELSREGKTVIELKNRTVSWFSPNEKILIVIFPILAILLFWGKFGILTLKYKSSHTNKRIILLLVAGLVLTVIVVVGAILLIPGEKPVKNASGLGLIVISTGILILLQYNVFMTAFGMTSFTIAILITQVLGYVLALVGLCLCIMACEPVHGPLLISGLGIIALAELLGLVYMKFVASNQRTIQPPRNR
Experiment: co-IP; endogenous proteins in lysates of mouse myocardial tissue (Con: 0.5 h and IR: 8 h cold ischemia, 24 h after heart transplantation); antibody-conjugated protein A/G magnetic beads, western blotting; isotype IgG as negative control; which of the two was precipitated is not stated

Substance: thrombospondin-1 (THBS1) (from UniProt P35441 19-1170) (ligand)
- binding: binds
